Source: PubChem BioAssay AID1259405 (NCATS, 2018)
Here is a random part of about 50,000 reagents. In the full data, about 4,000 (8%) got an active call. 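Mouse siRNA library applied to hamster cells; one well for each siRNA.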 The numbers tell different reagents against one gene apart. Further read-outs or replicates are left out here. Reagent sequences are not shown.

- Screen: 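Knock-downs that lift recombinant protein yield in hamster ovary cells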 (primary screen)
- Cells: Chinese hamster CHO-K1 ovary cells with stable secreted eGFP expression
- Knock-down reagent: single siRNA against mouse genes, 0.8 pmol siRNA per well (2 µl of 400 nM stock)
- Time to read-out: 3 days
- Read-out: 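Per-well intracellular GFP measured by laser scanning cytometry, plus viability from ATP luminescence, each relative to plate median of non-targeting control wells, in %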
- Direction: GFP, % of control: higher = more GFP per well, higher productivity
- Active means: 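Called active when intracellular GFP, relative to negative control, is at or above 120%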

GFP, % of control, by target gene and reagent
Rbp3 (retinol binding protein 3, interstitial): #1 107 inactive; #2 52.4 inactive; #3 101 inactive
Or52n5 (olfactory receptor family 52 subfamily N member 5): #1 131 active; #2 118 inactive; #3 64.3 inactive
Slc17a7: #1 72.4 inactive; #2 89.6 inactive; #3 89.9 inactive
Kif13a (kinesin family member 13A): #1 53.8 inactive; #2 96.8 inactive
Serpinb9c (serine (or cysteine) peptidase inhibitor, clade B, member 9c): #1 99.6 inactive; #2 65.9 inactive; #3 98.9 inactive

Targets above whose gene name begins with S or s:
GFP, % of control, by target gene and reagent
Slc17a7: #1 72.4 inactive; #2 89.6 inactive; #3 89.9 inactive
Serpinb9c (serine (or cysteine) peptidase inhibitor, clade B, member 9c): #1 99.6 inactive; #2 65.9 inactive; #3 98.9 inactive

More entries:
GFP, % of control, by target gene and reagent
Hecw2: #1 66.5 inactive; #2 32.6 inactive; #3 88.9 inactive
B3galt4: #1 96.1 inactive; #2 113 inactive; #3 88.5 inactive
Nemp1 (nuclear envelope integral membrane protein 1): #1 71.9 inactive; #2 90 inactive; #3 198 active
Tas2r138 (taste receptor, type 2, member 138): #1 69.5 inactive; #2 50.6 inactive; #3 49.8 inactive
Stk36 (serine/threonine kinase 36): #1 55.9 inactive; #2 72.2 inactive; #3 35.4 inactive
Psg19 (pregnancy specific beta-1-glycoprotein 19): #1 79 inactive; #2 65.5 inactive; #3 92 inactive
Agpat5 (1-acylglycerol-3-phosphate O-acyltransferase 5): #1 97.6 inactive; #2 44.6 inactive; #3 73.1 inactive
